Laboratory results reported in the supplement of paper PMC12067093, “Discovery and optimisation of a covalent ligand for TRIM25 and its application to targeted protein ubiquitination” (Chemical Science, 2025).
Some of the results follow.

Protein sequences, listed by entry. Tags and fused reporters are not part of them. Lines headed by an entry give the natural chain unless they say otherwise; changes in a name come on top.
UniProt O95714: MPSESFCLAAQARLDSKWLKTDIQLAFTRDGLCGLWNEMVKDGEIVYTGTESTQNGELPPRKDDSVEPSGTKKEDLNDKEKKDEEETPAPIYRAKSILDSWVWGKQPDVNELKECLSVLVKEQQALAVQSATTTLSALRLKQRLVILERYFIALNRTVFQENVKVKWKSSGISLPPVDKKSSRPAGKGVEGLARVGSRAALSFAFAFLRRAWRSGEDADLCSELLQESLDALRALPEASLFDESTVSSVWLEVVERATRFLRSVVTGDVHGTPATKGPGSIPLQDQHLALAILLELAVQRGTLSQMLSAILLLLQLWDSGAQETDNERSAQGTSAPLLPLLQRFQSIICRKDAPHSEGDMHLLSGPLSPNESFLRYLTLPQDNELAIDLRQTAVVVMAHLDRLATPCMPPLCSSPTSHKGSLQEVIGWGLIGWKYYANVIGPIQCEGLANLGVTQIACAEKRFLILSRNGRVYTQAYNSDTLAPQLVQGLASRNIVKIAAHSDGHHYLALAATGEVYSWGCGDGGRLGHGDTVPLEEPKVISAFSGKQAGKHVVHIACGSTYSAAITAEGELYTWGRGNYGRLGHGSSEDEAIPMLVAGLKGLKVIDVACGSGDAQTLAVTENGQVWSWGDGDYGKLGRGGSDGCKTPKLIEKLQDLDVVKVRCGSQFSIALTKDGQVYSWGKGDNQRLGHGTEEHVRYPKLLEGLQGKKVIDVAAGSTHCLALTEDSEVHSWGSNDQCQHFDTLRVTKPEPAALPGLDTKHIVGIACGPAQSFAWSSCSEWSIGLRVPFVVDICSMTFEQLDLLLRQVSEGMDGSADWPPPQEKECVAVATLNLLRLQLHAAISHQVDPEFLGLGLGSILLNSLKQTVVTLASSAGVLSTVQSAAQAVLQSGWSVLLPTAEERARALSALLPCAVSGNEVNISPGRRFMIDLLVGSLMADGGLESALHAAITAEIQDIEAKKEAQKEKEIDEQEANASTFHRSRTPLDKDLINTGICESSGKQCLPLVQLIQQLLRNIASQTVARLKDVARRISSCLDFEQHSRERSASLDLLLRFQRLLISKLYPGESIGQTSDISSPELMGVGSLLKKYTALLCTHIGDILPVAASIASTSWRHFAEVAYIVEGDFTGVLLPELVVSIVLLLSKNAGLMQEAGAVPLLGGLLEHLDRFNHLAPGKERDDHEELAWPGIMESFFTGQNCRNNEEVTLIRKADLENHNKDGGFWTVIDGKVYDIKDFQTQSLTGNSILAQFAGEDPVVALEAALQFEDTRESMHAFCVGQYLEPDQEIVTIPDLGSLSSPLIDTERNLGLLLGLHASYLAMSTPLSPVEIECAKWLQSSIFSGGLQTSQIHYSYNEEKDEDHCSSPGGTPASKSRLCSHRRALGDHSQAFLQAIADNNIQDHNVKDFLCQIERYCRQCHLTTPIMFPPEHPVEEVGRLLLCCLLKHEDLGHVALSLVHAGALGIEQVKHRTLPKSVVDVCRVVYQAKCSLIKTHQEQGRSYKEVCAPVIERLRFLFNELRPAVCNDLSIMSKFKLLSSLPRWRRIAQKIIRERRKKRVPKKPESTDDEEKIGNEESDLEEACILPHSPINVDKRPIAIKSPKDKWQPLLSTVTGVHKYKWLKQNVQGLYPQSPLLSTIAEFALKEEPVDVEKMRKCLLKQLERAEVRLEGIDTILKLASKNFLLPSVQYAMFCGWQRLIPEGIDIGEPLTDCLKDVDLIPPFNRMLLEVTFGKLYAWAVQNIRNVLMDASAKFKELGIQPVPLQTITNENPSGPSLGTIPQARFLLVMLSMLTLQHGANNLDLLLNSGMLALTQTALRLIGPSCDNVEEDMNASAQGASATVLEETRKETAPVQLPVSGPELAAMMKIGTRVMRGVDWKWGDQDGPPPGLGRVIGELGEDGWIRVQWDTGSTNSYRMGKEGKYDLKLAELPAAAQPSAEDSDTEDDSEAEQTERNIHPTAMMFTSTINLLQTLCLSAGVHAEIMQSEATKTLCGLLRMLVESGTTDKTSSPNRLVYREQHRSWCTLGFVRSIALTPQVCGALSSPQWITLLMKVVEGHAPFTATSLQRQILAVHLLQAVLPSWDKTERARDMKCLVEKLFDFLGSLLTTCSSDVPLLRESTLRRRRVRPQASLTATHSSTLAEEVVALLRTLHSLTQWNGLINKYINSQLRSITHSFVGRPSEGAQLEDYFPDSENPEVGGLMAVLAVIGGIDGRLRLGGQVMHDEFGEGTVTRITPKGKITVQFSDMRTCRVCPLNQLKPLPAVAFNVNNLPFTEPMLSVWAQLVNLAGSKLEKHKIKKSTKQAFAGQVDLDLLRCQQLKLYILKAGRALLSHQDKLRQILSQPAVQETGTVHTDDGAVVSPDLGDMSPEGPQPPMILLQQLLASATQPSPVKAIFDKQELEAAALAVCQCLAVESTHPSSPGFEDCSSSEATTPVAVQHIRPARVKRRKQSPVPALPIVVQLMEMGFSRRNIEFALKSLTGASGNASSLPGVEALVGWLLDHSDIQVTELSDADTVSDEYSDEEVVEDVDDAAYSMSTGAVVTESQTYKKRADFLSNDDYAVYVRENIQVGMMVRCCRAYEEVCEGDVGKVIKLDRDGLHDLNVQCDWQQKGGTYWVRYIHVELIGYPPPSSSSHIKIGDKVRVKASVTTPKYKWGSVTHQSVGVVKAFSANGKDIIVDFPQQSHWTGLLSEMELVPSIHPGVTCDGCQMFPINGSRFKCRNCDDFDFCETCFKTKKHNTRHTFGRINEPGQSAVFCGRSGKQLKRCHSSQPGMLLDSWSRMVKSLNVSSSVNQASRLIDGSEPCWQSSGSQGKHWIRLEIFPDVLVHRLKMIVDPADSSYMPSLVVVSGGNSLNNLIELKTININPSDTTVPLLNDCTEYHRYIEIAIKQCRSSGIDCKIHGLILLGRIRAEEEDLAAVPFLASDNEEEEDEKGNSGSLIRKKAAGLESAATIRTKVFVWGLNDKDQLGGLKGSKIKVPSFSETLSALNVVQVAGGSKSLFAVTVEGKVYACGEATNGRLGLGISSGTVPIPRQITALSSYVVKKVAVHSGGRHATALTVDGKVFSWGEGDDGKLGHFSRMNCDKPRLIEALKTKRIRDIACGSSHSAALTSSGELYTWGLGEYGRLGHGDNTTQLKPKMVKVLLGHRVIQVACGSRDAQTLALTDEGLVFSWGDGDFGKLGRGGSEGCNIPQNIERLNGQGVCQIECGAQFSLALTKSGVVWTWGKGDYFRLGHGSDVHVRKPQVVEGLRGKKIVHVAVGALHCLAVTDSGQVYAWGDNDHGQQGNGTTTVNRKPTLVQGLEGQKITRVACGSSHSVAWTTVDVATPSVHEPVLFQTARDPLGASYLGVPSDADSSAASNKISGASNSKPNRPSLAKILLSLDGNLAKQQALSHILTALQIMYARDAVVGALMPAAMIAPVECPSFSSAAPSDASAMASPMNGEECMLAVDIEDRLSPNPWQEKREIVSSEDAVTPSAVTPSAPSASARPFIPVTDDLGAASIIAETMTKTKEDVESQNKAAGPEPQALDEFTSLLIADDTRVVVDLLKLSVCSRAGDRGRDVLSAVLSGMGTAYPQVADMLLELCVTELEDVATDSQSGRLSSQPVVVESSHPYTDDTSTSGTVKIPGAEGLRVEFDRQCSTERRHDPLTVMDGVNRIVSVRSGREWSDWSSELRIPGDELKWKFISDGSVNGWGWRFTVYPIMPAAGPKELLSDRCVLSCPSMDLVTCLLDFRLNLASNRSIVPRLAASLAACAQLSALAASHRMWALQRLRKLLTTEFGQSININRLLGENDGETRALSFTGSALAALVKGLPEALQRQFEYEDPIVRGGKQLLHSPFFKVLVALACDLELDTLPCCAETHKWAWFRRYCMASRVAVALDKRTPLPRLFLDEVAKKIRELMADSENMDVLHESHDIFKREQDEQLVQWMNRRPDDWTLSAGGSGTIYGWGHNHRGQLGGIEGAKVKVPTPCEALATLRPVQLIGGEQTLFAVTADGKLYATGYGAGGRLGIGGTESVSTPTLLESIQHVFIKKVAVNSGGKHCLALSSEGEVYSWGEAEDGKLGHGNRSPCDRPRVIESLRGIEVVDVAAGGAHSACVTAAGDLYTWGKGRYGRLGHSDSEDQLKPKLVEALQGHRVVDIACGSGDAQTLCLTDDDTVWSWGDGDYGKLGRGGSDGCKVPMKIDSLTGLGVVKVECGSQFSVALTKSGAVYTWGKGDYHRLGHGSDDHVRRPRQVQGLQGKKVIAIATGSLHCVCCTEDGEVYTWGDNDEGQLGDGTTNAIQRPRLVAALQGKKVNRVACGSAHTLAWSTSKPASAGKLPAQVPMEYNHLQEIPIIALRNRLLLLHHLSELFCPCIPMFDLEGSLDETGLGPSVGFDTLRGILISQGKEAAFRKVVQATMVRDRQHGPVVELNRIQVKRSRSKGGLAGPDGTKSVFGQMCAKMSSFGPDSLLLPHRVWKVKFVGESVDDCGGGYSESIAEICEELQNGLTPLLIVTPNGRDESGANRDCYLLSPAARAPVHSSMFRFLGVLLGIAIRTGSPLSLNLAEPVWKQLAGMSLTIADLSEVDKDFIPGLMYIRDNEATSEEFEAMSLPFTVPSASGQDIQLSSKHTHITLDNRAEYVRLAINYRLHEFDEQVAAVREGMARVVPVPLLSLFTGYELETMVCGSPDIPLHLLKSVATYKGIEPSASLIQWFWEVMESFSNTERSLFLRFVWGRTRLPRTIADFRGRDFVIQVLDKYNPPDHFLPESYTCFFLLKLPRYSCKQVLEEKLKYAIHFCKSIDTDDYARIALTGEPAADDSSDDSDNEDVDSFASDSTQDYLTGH
UniProt Q6AI08: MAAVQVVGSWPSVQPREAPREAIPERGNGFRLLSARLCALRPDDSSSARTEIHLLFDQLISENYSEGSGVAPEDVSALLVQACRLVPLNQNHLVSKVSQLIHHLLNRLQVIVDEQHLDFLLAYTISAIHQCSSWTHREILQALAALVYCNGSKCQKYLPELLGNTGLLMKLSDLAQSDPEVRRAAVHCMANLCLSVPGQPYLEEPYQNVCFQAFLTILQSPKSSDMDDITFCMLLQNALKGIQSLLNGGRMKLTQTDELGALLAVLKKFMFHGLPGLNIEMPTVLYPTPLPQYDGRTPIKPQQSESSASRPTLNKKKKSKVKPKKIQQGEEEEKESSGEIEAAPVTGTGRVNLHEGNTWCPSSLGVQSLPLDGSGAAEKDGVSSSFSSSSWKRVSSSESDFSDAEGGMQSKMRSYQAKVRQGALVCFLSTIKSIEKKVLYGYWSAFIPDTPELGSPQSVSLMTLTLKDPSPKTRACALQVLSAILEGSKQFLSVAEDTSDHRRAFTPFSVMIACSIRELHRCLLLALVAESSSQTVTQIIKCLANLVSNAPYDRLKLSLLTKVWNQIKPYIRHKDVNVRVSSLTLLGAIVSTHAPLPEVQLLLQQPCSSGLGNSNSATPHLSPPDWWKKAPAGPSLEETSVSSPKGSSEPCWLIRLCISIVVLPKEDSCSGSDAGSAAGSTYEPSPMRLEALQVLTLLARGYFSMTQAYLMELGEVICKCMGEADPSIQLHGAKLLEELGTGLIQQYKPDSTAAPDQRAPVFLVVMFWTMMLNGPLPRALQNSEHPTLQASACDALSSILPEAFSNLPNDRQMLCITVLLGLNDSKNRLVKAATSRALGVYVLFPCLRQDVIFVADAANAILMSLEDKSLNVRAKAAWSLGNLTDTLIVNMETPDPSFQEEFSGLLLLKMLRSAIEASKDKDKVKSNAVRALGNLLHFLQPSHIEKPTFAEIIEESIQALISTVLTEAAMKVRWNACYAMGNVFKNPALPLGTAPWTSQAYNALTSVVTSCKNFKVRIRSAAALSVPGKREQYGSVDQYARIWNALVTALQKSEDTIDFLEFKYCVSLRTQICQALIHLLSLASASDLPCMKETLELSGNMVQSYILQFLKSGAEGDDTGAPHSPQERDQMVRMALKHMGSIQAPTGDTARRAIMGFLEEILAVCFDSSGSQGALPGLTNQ
UniProt P51858: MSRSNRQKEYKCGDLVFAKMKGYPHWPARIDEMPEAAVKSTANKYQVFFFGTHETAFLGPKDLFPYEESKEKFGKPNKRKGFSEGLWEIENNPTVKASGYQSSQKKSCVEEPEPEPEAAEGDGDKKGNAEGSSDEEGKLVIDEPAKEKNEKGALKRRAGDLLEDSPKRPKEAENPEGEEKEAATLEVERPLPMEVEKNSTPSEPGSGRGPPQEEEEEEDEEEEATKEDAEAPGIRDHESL
UniProt Q9NQE9: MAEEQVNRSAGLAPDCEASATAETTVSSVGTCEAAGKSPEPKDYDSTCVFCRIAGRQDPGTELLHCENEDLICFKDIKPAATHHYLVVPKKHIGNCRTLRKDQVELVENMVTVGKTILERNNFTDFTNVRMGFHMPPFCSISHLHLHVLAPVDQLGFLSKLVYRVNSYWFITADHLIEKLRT

Compound: Cc1cc(ccc1-c1ccccc1)C(=O)N1CCCN(CC1)C(=O)CCl [compound 10]
Assay: probe-labelled cysteine peptide fold change vs DMSO (competition) (log2 fold change); higher = less target engagement (more negative = stronger competition)
Details: THP-1, incubation time: 4 h
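Further: competitive profiling in live THP-1 cells: cysteine peptides tagged with an iodoacetamide desthiobiotin (IA-DTB) probe, intensity after compound treatment relative to DMSO-treated cells.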

Target	probe-labelled cysteine peptide fold change (10 µM)	probe-labelled cysteine peptide fold change (50 µM)
HECTD4_Q9Y4D8_757_AMWGFACTVR (UniProt Q9Y4D8)	0.135	0.389
HK2_P52789_386_SASLCAATLAAVLQR (UniProt P52789)	0.118	0.132
HERC2_O95714_2881_TININPSDTTVPLLNDCTEYHR (UniProt O95714)	-0.124	0.418
HIP1_O00291_906_GKFEELMVCSHEIAASTAQLVAASK (UniProt O00291)	0.0805	0.788
HENMT1_Q5T8I9_56_KVADLGCGDTSLLR (UniProt Q5T8I9)	-0.0187	-0.456
HCFC1_P51610_326_AGHCAVAINTR (UniProt P51610)	0.0299	0.185
HEATR6_Q6AI08_426_QGALVCFLSTIK (UniProt Q6AI08)	0.00641	0.0825
HGS_O14964_75_NCGQTVHDEVANK (UniProt O14964)	0.223	0.299
HIRA_P54198_867_QDSLAQCADFR (UniProt P54198)	0.0167	0.112
HDGF_P51858_12_CGDLVFAK (UniProt P51858)	-0.289	-0.21
HINT3_Q9NQE9_66+73_QDPGTELLHCENEDLICFK (UniProt Q9NQE9)	-0.386	-0.532
HDHD3_Q9BSH5_109_DFSHPCTWQVLDGAEDTLR (UniProt Q9BSH5)	-0.47	-1.92
HDAC10_Q969S8_508_LLCVALGQLDRPPDLAHDGR (UniProt Q969S8)	0.15	0.0528
HMBS_P08397_114_DLPTVLPPGFTIGAICK (UniProt P08397)	0.0394	-0.101
HGH1_Q9BTY7_138_EPAPCAALMAALAAAEPADSGLER (UniProt Q9BTY7)	0.0774	0.0728
HMGCL_P35914_141_NINCSIEESFQR (UniProt P35914)	0.262	0.184
HLA-E_P13747_185_AYLEDTCVEWLHK (UniProt P13747)	-0.138	0.067
HCFC2_Q9Y5Z7_125_VKPHPPPSGLPPCPR (UniProt Q9Y5Z7)	-0.132	0.158
HERC2_O95714_4204_VECGSQFSVALTK (UniProt O95714)	0.102	0.122
HMG20B_Q9P0W2_177_GGDCDGFSTFDVPIFTEEFLDQNK (UniProt Q9P0W2)	-0.236	-0.399
HDHD5_Q9BXW7_392_DLCFSPGLMEASHVVNDVNEAVQLVFRK (UniProt Q9BXW7)	-0.183	-1.22

Target	probe-labelled cysteine peptide fold change (10 µM)	probe-labelled cysteine peptide fold change (50 µM)
HMGB3_O15347_23_MSAYAFFVQTCR (UniProt O15347)	0.0558	-0.351
HGH1_Q9BTY7_227_NCCFEHR (UniProt Q9BTY7)	-0.081	-0.695
HK1_P19367_158_LPVGFTFSFPCQQSK (UniProt P19367)	-0.0518	-0.0955
HDAC2_Q92769_13_VCYYYDGDIGNYYYGQGHPMK (UniProt Q92769)	0.116	0.377
HDLBP_Q00341_104_ICLEIMQR (UniProt Q00341)	0.172	0.0311
HERC2_O95714_4517_DESGANRDCYLLSPAAR (UniProt O95714)	0.221	0.126
HERC2_O95714_3016_VYACGEATNGR (UniProt O95714)	0.109	0.336
HINT3_Q9NQE9_73_QDPGTELLHCENEDLICFK (UniProt Q9NQE9)	-0.067	-0.0225
HERC2_O95714_33_DGLCGLWNEMVK (UniProt O95714)	-0.11	-0.106
HMGCS1_Q01581_268_DFTLNDFGFMIFHSPYCK (UniProt Q01581)	-0.0231	-0.138
HLA-DRB1_P04229_59_CIYNQEESVR (UniProt P04229)	0.0937	0.223
HERC2_O95714_664_CGSQFSIALTK (UniProt O95714)	0.0498	0.00801
HGS_O14964_185_ACGQIFCGK (UniProt O14964)	0.0596	-0.0678
HEATR5B_Q9P2D3_718_SLCHYDDSVLLGSWLQETDHK (UniProt Q9P2D3)	0.0138	-0.00101
HEBP1_Q9NRV9_168_GDIYFCTGYDPPMKPYGR (UniProt Q9NRV9)	-0.0415	-0.553
HINT3_Q9NQE9_96_HIGNCR (UniProt Q9NQE9)	-0.00489	0.142
HDGF_P51858_108_SCVEEPEPEPEAAEGDGDK (UniProt P51858)	-0.176	-0.206
HECTD1_Q9ULT8_762_LTVGNWSLTCLK (UniProt Q9ULT8)	0.0373	0.0401
HEATR6_Q6AI08_232_SSDMDDITFCMLLQNALK (UniProt Q6AI08)	0.0594	-0.235
HDAC3_O15379_94_SLNAFNVGDDCPVFPGLFEFCSR (UniProt O15379)	0.167	0.172
HDAC6_Q9UBN7_752_GDPLGGCQVSPEGYAHLTHLLMGLASGR (UniProt Q9UBN7)	-0.0314	0.0939
